These are yes or no findings as the source states them, for the method shown. Binding seen in cells or lysates may run through a third protein. Some entries that bind do so weakly or less than the wild type. One block for each binder: values may come before it.
Assays:
[1] = target: T1, ferredoxin 1 (FDX1) (human (endogenous in THP-1)) (UniProt P10109); experiment: co-IP; THP-1 cell lysate supernatant (13,000 g, 30 min, 4°C); 5 ug target antibody or IgG, 4°C 6 h; protein A+G agarose beads overnight at 4°C; western blot; control and LPS-treated cells; which antibody precipitated is not told
T1 sequence: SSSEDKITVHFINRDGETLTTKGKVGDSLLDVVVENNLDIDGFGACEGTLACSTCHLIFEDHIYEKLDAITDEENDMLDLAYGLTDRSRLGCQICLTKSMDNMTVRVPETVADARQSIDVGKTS

[2] = target: T2, heat shock cognate B (HSCB) (human (endogenous in THP-1)) (UniProt Q8IWL3); experiment: as above
T2 sequence: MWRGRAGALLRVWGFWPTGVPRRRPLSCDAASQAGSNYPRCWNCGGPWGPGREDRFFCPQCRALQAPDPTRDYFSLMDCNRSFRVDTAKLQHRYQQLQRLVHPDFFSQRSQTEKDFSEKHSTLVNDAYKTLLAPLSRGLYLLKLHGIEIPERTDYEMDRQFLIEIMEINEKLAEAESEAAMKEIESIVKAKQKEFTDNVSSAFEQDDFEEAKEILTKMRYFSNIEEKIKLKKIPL

binding [1]: binds
B1: heat shock cognate B (HSCB) (protein, UniProt Q8IWL3 1-235)
chain: T2 sequence

binding [2]: binds
B2: hexokinase domain containing 1 (HKDC1) (protein, UniProt Q2TB90 1-917)
chain: MFAVHLMAFYFSKLKEDQIKKVDRFLYHMRLSDDTLLDIMRRFRAEMEKGLAKDTNPTAAVKMLPTFVRAIPDGSENGEFLSLDLGGSKFRVLKVQVAEEGKRHVQMESQFYPTPNEIIRGNGTELFEYVADCLADFMKTKDLKHKKLPLGLTFSFPCRQTKLEEGVLLSWTKKFKARGVQDTDVVSRLTKAMRRHKDMDVDILALVNDTVGTMMTCAYDDPYCEVGVIIGTGTNACYMEDMSNIDLVEGDEGRMCINTEWGAFGDDGALEDIRTEFDRELDLGSLNPGKQLFEKMISGLYLGELVRLILLKMAKAGLLFGGEKSSALHTKGKIETRHVAAMEKYKEGLANTREILVDLGLEPSEADCIAVQHVCTIVSFRSANLCAAALAAILTRLRENKKVERLRTTVGMDGTLYKIHPQYPKRLHKVVRKLVPSCDVRFLLSESGSTKGAAMVTAVASRVQAQRKQIDRVLALFQLTREQLVDVQAKMRAELEYGLKKKSHGLATVRMLPTYVCGLPDGTEKGKFLALDLGGTNFRVLLVKIRSGRRSVRMYNKIFAIPLEIMQGTGEELFDHIVQCIADFLDYMGLKGASLPLGFTFSFPCRQMSIDKGTLIGWTKGFKATDCEGEDVVDMLREAIKRRNEFDLDIVAVVNDTVGTMMTCGYEDPNCEIGLIAGTGSNMCYMEDMRNIEMVEGGEGKMCINTEWGGFGDNGCIDDIWTRYDTEVDEGSLNPGKQRYEKMTSGMYLGEIVRQILIDLTKQGLLFRGQISERLRTRGIFETKFLSQIESDRLALLQVRRILQQLGLDSTCEDSIVVKEVCGAVSRRAAQLCGAGLAAIVEKRREDQGLEHLRITVGVDGTLYKLHPHFSRILQETVKELAPRCDVTFMLSEDGSGKGAALITAVAKRLQQAQKEN

From publication PMC12748187
